# From article PMC13144351
# B1: NEMF (protein, UniProt O60524 1-1076)
# chain: MKSRFSTIDLRAVLAELNASLLGMRVNNVYDVDNKTYLIRLQKPDFKATLLLESGIRIHTTEFEWPKNMMPSSFAMKCRKHLKSRRLVSAKQLGVDRIVDFQFGSDEAAYHLIIELYDRGNIVLTDYEYVILNILRFRTDEADDVKFAVRERYPLDHARAAEPLLTLERLTEIVASAPKGELLKRVLNPLLPYGPALIEHCLLENGFSGNVKVDEKLETKDIEKVLVSLQKAEDYMKTTSNFSGKGYIIQKREIKPSLEADKPVEDILTYEEFHPFLFSQHSQCPYIEFESFDKAVDEFYSKIEGQKIDLKALQQEKQALKKLDNVRKDHENRLEALQQAQEIDKLKGELIEMNLQIVDRAIQVVRSALANQIDWTEIGLIVKEAQAQGDPVASAIKELKLQTNHVTMLLRNPYLLSEEEDDDVDGDVNVEKNETEPPKGKKKKQKNKQLQKPQKNKPLLVDVDLSLSAYANAKKYYDHKRYAAKKTQKTVEAAEKAFKSAEKKTKQTLKEVQTVTSIQKARKVYWFEKFLWFISSENYLIIGGRDQQQNEIIVKRYLTPGDIYVHADLHGATSCVIKNPTGEPIPPRTLTEAGTMALCYSAAWDARVITSAWWVYHHQVSKTAPTGEYLTTGSFMIRGKKNFLPPSYLMMGFSFLFKVDESCVWRHQGERKVRVQDEDMETLASCTSELISEEMEQLDGGDTSSDEDKEEHETPVEVELMTQVDQEDITLQSGRDELNEELIQEESSEDEGEYEEVRKDQDSVGEMKDEGEETLNYPDTTIDLSHLQPQRSIQKLASKEESSNSSDSKSQSRRHLSAKERREMKKKKLPSDSGDLEALEGKDKEKESTVHIETHQNTSKNVAAVQPMKRGQKSKMKKMKEKYKDQDEEDRELIMKLLGSAGSNKEEKGKKGKKGKTKDEPVKKQPQKPRGGQRVSDNIKKETPFLEVITHELQDFAVDDPHDDKEEQDLDQQGNEENLFDSLTGQPHPEDVLLFAIPICAPYTTMTNYKYKVKLTPGVQKKGKAAKTALNSFMHSKEATAREKDLFRSVKDTDLSRNIPGKVKVSAPNLLNVKRK
# Molecular target: 3xFLAG-UFM1 (ubiquitin-fold modifier 1, endogenously tagged) (human) (UniProt P61960)
# Experiment: affinity purification with mass spectrometry; anti-FLAG M2 (or IgG control) on protein G Dynabeads; ribosomal pellets (25% sucrose cushion) of HCT116 3xFLAG-UFM1 cells, untreated or 200 nM anisomycin 1 h; digitonin buffer, 4 °C, 2 h; on-bead trypsin digest, LC-MS/MS
binder,measurement,value
B1,binding,binds

# No constants are given. Whether binding was seen depends on the method and setting. In cells and extracts the contact can be indirect. Here binding means that the protein was enriched with, or labelled near, the bait; the list need not be complete.
